Literature values as cited in patent publication US9902783B2, “Antibodies and pharmaceutical compositions containing same useful for inhibiting activity of metalloproteins” (Yeda Research and Development Co. Ltd., priority 2007, dated 2018).
At least one structure is not confirmed: it was looked up by name or label, or the drawing left a doubt.

Key:
metastasis = conditions: phase III, advanced cancer patients; cited from earlier work
MMP-1 = conditions: atherosclerotic carotid plaques, human patients; cited from earlier work
MMP-2, 3, or -9 = conditions: atherosclerotic carotid plaques, human patients; cited from earlier work

Structure (SMILES): CC1(C)SCCN(S(=O)(=O)c2ccc(Oc3ccncc3)cc2)[C@H]1C(=O)NO [prinomastat]
- clinical efficacy in inhibiting metastasis (metastasis): no clinical efficacy

Structure (SMILES): C[C@H]1c2cccc(O)c2C(=O)C2=C(O)[C@]3(O)C(=O)C(C(N)=O)=C(O)[C@@H](N(C)C)[C@@H]3[C@@H](O)[C@@H]21 [doxycycline]
- tissue levels of MMP-1 (MMP-1): reduced
- tissue levels of MMP-2, 3, or -9 (MMP-2, 3, or -9): but not MMP-2, 3, or -9
